Assay results as given in patent publication CN115010810A.
Results are given in words; binding and its absence hold for the method and conditions named. Some entries that bind do so weakly or less than the wild type. Sequences can lack the tags named with a protein.

Molecular target: T1, 食蟹猴CTLA-4-His (cynomolgus monkey) (UniProt G7PL88)
T1 sequence: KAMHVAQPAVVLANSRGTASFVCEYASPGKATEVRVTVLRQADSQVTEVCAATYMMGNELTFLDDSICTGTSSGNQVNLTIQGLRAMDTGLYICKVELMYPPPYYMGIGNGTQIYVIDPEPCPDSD
Experiment: ELISA, cynomolgus CTLA-4-His coated

binding: binds
B1: HuC92-11 (antibody, V domains shown)
VH: QVQLVESGGGVVQPGRSLRLSCAASGFTFSNYAMSWVRQAPGKGLEWVAEISYSGTYSYHSDTVTGRFTISRDNSKNTLYLQMSSLRAEDTAVYYCTRRDYDNEMDYWGQGTLVTVSS
VL: DIQMTQSPSSLSASVGDRVTITCRTSQVITNYLNWYQQKPGKAPKLLIYYTSRLHSGVPSRFSGSGSGTDYTLTISSLQPEDFATYYCQQFGKRPPTFGGGTKVEIK
